Laboratory results taken from paper PMC8274477.
No constants are given. Whether binding was seen depends on the method and setting. Some entries that bind do so weakly or less than the wild type.

By UniProt entry, the sequences of proteins in these tests, tags left out. Residues count along the entry.
UniProt O00308: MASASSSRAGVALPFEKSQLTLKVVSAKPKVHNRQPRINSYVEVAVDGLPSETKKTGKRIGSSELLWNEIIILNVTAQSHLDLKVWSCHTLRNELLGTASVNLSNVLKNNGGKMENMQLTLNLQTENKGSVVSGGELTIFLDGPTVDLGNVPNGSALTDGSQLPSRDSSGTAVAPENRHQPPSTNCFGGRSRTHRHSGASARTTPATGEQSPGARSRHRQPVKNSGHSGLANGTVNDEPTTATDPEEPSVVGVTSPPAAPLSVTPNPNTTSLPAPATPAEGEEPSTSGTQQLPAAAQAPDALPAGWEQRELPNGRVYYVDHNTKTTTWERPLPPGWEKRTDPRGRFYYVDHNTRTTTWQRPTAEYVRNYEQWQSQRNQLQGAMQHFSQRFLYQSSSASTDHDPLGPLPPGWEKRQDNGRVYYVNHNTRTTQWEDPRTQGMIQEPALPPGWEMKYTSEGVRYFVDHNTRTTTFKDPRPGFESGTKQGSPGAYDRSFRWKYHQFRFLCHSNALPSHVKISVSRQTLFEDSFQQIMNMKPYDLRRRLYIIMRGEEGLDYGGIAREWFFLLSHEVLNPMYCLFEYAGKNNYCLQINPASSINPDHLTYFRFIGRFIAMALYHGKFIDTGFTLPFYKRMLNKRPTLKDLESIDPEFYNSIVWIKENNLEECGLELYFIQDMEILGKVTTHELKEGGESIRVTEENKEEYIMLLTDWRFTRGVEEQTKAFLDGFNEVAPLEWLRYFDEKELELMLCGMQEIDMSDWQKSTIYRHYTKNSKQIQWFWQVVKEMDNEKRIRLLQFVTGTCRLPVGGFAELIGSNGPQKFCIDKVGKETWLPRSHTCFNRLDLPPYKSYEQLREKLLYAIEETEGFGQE
UniProt Q14103: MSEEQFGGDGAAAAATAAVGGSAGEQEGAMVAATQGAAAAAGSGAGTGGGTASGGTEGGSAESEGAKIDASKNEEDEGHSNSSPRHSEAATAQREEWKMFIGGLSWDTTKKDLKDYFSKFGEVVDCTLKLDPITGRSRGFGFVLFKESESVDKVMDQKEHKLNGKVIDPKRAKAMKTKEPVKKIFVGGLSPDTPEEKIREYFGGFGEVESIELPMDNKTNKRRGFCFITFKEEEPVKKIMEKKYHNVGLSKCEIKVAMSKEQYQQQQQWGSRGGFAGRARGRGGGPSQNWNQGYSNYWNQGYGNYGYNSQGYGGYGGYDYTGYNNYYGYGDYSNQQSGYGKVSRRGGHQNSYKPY
UniProt P26196: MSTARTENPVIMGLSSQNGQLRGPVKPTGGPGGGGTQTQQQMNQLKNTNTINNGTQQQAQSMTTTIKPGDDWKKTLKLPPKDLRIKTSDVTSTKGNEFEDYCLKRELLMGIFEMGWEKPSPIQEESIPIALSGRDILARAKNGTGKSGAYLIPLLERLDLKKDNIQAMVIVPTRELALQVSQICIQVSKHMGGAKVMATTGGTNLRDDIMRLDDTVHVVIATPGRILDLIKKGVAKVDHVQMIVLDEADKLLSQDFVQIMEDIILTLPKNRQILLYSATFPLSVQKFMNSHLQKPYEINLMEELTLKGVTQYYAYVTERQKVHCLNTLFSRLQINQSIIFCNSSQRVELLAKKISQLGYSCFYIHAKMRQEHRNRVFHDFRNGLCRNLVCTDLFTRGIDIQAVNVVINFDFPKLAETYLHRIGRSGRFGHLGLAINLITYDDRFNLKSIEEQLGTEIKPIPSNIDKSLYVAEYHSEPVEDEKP
UniProt P10809, residues 27-573: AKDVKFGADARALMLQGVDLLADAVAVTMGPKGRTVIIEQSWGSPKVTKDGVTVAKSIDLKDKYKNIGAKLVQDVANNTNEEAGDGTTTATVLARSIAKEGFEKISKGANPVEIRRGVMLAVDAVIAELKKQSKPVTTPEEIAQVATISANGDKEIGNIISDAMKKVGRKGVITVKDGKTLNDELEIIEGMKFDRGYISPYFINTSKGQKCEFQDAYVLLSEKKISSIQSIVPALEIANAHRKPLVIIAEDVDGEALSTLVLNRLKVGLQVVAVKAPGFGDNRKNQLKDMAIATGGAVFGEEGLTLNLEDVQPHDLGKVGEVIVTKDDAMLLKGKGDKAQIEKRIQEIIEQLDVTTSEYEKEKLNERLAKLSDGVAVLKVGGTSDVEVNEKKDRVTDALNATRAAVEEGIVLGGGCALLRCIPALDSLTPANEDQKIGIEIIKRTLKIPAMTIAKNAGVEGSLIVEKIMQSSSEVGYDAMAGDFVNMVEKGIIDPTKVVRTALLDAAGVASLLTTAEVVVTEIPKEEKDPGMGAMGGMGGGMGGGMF

Columns and labels:
Assay in all cases: peptide or protein array; HuProt human proteome microarray; 5 ug/5 ml biotin-labelled LUBAC or OTULIN in solution, 1 h at room temperature; Cy5-streptavidin, scanned at 635 nm; BSA as negative control; hits: Z-score >= 3 and I_(Mean_Ratio) >= 1.4; both purified
[1] = molecular target: WWP2 (spot on the microarray) (human) (UniProt O00308)
[2] = molecular target: HNRNPD (human) (UniProt Q14103)
[3] = molecular target: DDX6 (spot on the microarray) (human) (UniProt P26196)
[4] = molecular target: T1, TIA1 (human) (UniProt P31483)
T1 sequence: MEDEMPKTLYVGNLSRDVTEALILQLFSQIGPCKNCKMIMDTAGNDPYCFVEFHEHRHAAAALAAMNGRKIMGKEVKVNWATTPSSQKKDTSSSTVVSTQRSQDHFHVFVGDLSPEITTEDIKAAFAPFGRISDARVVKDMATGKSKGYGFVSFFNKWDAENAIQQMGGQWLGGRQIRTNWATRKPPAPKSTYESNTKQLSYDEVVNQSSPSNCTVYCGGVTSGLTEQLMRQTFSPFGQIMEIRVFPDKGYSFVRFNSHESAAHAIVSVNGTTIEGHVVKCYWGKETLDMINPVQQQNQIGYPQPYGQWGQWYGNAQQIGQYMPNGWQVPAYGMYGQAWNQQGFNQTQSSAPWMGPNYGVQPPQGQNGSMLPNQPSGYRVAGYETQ

[5] = molecular target: HSPD1 (human) (UniProt P10809)
[6] = molecular target: T2, ZADH2 (human) (UniProt Q8N4Q0)
T2 sequence: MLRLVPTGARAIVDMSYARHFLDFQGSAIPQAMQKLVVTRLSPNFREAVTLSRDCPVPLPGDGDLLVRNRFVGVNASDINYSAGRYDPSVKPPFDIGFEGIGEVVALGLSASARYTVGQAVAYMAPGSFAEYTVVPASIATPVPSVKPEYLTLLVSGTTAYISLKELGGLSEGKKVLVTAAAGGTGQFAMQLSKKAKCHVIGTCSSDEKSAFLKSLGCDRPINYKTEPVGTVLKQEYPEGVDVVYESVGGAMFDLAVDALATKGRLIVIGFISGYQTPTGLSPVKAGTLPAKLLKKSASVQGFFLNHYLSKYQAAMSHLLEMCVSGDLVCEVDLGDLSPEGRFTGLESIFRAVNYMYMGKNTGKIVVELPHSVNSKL

[7] = molecular target: T3, PYCRL (human) (UniProt Q53H96)
T3 sequence: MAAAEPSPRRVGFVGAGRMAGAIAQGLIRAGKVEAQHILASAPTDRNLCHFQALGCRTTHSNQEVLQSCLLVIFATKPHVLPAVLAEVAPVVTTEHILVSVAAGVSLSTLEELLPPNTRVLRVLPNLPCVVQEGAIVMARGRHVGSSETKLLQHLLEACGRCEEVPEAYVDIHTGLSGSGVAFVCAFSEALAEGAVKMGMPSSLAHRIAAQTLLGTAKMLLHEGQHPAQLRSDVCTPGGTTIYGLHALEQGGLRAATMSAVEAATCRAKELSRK

[8] = molecular target: T4, FAAH2 (human) (UniProt Q6GMR7)
T4 sequence: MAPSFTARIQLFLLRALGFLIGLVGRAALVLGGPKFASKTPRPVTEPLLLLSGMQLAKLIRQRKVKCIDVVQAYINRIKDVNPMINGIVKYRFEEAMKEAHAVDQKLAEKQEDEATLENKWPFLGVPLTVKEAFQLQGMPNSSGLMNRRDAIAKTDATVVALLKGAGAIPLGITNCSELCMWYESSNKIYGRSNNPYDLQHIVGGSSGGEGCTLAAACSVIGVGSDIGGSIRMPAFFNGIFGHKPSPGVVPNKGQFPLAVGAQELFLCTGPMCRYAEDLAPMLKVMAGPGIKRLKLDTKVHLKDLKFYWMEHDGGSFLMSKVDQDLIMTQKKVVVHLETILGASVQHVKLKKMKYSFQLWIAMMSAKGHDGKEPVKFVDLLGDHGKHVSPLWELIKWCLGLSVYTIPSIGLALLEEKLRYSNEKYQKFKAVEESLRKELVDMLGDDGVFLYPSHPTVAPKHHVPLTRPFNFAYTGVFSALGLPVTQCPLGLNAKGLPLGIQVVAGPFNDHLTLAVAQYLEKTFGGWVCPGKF

- binding [1]: binds
- binding [2]: binds
- binding [3]: binds
- binding [4]: binds
- binding [5]: binds
- binding [6]: binds
- binding [7]: binds
- binding [8]: binds
Substance: linear ubiquitin chain assembly complex (LUBAC), purified as HIS-tagged HOIP with the subunit HOIL-1, biotin-labelled (from UniProt Q96EP0 1-1072; Q9BYM8 1-510)
